# Test system: five organisms
# Assay: Antimicrobial activity, sum of log drops of five organisms
# Assay type: cell-based
# Settings: HA 1.7M relative to non-HA control and/or lower molecular weight HA compositions; Tris buffered
structure (smiles),measurement,value
"CCCCCCCCCCCCCCCC[n+]1ccccc1 [CPC, Cetylpyridinium Chloride]",reduction of the sum of the kill level by HA of MW 1.7M,less than 1 log

# Reference: patent US20060100173A1, “Ophthalmic solution” (priority 2004, published 2006)
